The text below walks through data of publication PMC12410356 (International Journal for Parasitology: Drugs and Drug …, 2025).

In data set [1] the test system is E. multilocularis metacestode vesicles. The data set can be described thus: Phosphoglucose isomerase (PGI) release assay (damage-marker release) on metacestode vesicles. Format: cell-based, Echinococcus multilocularis. The conditions noted are these: overview screen, 10 μM, singlets, relative to 0.1 % Triton X-100, DMSO subtracted. The protocol: In order to quantify the drug-induced damage on whole metacestode vesicles, phosphoglucose isomerase (PGI) assay was performed as described previously ([Stadelmann et al., 2010]) with few adaptations published recently ([Kaethner et al., 2023]). In short, 8 to 12 weeks-old metacestode vesicles were purified using 2 % sucrose with subsequent washes in PBS. Metacestode vesicles were diluted in two volumes of DMEM without phenol red containing penicillin (100 U/mL) and streptomycin (100 μg/mL). […] 0.1 % DMSO was used as a negative solvent control and 0.1 % Triton X-100 was used as a positive total damage control. Metacestode vesicles were incubated under a humid, 5 % CO2 atmosphere at 37 °C. After five and twelve days, supernatant was taken and pictures were made using a Nikon SMZ18 stereo microscope (Nikon, Basel, Switzerland) at 7.5 × magnification. PGI activity in the supernatants was measured on a HIDEX Sense microplate reader (Hidex, Turku, Finland). The corresponding values of the DMSO controls were subtracted from the values of the compounds and then PGI activity was calculated relative to 0.1 % Triton X-100. […] IC50 values were calculated applying the 3 parameter Weibull type 1 in R for each of the three independent experiments ([Ritler et al., 2020]).

Data set [2] has the same test system. The data set can be described thus: Metacestode vesicle viability assay (ATP, CellTiter-Glo). Conditions: overview screen, 10 μM, singlets, 12 days, relative to DMSO control. Format: cell-based, Echinococcus multilocularis. The protocol: Viability was assessed after 12 days using the same metacestode vesicles as for the PGI release assay. Triton X-100 was added to each well to a final concentration of 0.1 %. Subsequently the metacestode vesicles were broken mechanically and 50 μL of the supernatant was mixed with 50 μL of CellTiter-Glo® buffer (Promega, Dübendorf, Switzerland). Measurements were performed on a HIDEX Sense microplate reader.
(In general: ATP-based viability assays read luminescence as a measure of living cells.)

With `Cl.Clc1ccc(COC(Cn2ccnc2)c2ccc(Cl)cc2Cl)c(Cl)c1` (stereo not drawn) [MMV002722], the “PGI d5 (relative PGI release)” value in data set [1] (5 days) is recorded as -0.1445%. Further, the “PGI d12 (relative PGI release)” value in data set [1] (12 days) is -8.771%. Also, the “Viability d12 (relative viability)” value in data set [2] is given as 116.729%.
